PubChem BioAssay AID1508588, Peter MacCallum Cancer Centre – 2020

- Aim: 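Genome-wide search for knock-downs that heighten vemurafenib action in melanoma cells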 (primary screen)
- System: human WM266.4 melanoma cells (BRAF V600 mutant)
- Reagents: siRNA pool against human genes, 40 nM
- Time to read-out: 96 h from transfection to read-out
- Challenge: vemurafenib 300 nM (about IC25), added 48 h after transfection, for 48 h; comparison arm got DMSO vehicle only
- Measurement: 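Ratios to non-targeting siRNA for cell gain, counted as DAPI nuclei after minus before drug and averaged over two replicates, and for absorbance-read medium lactate per cell; both binned into fold-change classes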
- Scale: cell gain with vemurafenib: higher = more cell gain than with non-targeting siRNA; lactate per cell with vemurafenib: higher = more lactate made per cell
- Rule for the call: 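a knock-down counts as enhancing when its fold-change classes with vehicle and with vemurafenib, taken together, show a stronger drug effect on cell gain or lactate per cell; exact class pairs not stated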
- Meaning of the calls: active = enhances vemurafenib effect; inactive = no enhancement seen
Here is one part, drawn at random, of about 18,000 reagents tested. Over the whole deposit, 790 (4.4%) were called active. 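Calls rest on a combination of fold-change classes in drug and vehicle arms, not all shown here.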 Entries without a mark were called inactive.

For EOLA1 (endothelium and lymphocyte associated ASCH domain 1), the values are cell gain with vemurafenib 0.36; lactate per cell with vemurafenib 0.75.
For ZNF169 (zinc finger protein 169) the deposit lists cell gain with vemurafenib 0.89; lactate per cell with vemurafenib 0.76.
For RHEB (Ras homolog, mTORC1 binding), the entry reads cell gain with vemurafenib 0.75; lactate per cell with vemurafenib 1.6.
RNF215 (ring finger protein 215) scored cell gain with vemurafenib 0.55; lactate per cell with vemurafenib 1.23.
Against RAB19 (RAB19, member RAS oncogene family), the entry reads cell gain with vemurafenib 0.54; lactate per cell with vemurafenib 1.17.
CABP4 (calcium binding protein 4) showed cell gain with vemurafenib 0.6; lactate per cell with vemurafenib 1.29.
After knock-down of BRD1 (bromodomain containing 1), the record shows cell gain with vemurafenib 0.78; lactate per cell with vemurafenib 0.68.
Against NME3 (NME/NM23 nucleoside diphosphate kinase 3), the values are cell gain with vemurafenib 0.58; lactate per cell with vemurafenib 1.25.
SLC25A15 showed cell gain with vemurafenib 0.86; lactate per cell with vemurafenib 1.07.
For SAXO4 (stabilizer of axonemal microtubules 4), the entry reads cell gain with vemurafenib 0.58; lactate per cell with vemurafenib 0.56.
After knock-down of PAK1IP1 (PAK1 interacting protein 1) the results were cell gain with vemurafenib 0.53; lactate per cell with vemurafenib 1.79.
For C21orf91 (chromosome 21 open reading frame 91), the entry reads cell gain with vemurafenib 1.31; lactate per cell with vemurafenib 0.45.
ZNF497 (zinc finger protein 497) showed cell gain with vemurafenib 0.54; lactate per cell with vemurafenib 1.16.
With knock-down of ADGRG3 (adhesion G protein-coupled receptor G3), the screen gave cell gain with vemurafenib 0.61; lactate per cell with vemurafenib 0.95.
Against USP42 (ubiquitin specific peptidase 42) the deposit lists cell gain with vemurafenib 0.94; lactate per cell with vemurafenib 0.66.
With knock-down of MAP3K21 (mitogen-activated protein kinase kinase kinase 21), the screen gave cell gain with vemurafenib 0.58; lactate per cell with vemurafenib 1.7.
After knock-down of H2BC8 (H2B clustered histone 8), the record shows cell gain with vemurafenib 0.56; lactate per cell with vemurafenib 0.24.
After knock-down of AQP6 (aquaporin 6), the record shows cell gain with vemurafenib 1.04; lactate per cell with vemurafenib 0.68.
Knock-down of PDLIM4 (PDZ and LIM domain 4) came out at: cell gain with vemurafenib 0.95; lactate per cell with vemurafenib 0.72.
Knock-down of SH3GLB2 (SH3 domain containing GRB2 like, endophilin B2) resulted in: cell gain with vemurafenib 0.54; lactate per cell with vemurafenib 1.82.
Knock-down of PDE3B (phosphodiesterase 3B) gave: cell gain with vemurafenib 0.74; lactate per cell with vemurafenib 0.5.
Silencing of CLXN (calaxin) gave: cell gain with vemurafenib 0.85; lactate per cell with vemurafenib 0.74.
With knock-down of FLRT1 (fibronectin leucine rich transmembrane protein 1), the screen gave cell gain with vemurafenib 0.27; lactate per cell with vemurafenib 1.72.
MBTD1 (mbt domain containing 1) showed cell gain with vemurafenib 0.43; lactate per cell with vemurafenib 0.73.
Silencing of ATF4 (activating transcription factor 4) resulted in: cell gain with vemurafenib 0.32; lactate per cell with vemurafenib 1.05.
With knock-down of CCKAR (cholecystokinin A receptor) the results were cell gain with vemurafenib 0.67; lactate per cell with vemurafenib 0.6.
Depletion of CFAP263 (cilia and flagella associated protein 263) gave: cell gain with vemurafenib 0.35; lactate per cell with vemurafenib 0.76.
THAP10 (THAP domain containing 10) scored cell gain with vemurafenib 0.38; lactate per cell with vemurafenib 0.63.
With knock-down of OR2J3 (olfactory receptor family 2 subfamily J member 3), the screen gave cell gain with vemurafenib 0.74; lactate per cell with vemurafenib 1.17.
NR5A2 (nuclear receptor subfamily 5 group A member 2) gave cell gain with vemurafenib 0.3; lactate per cell with vemurafenib 1.25.
With knock-down of NCK1 (NCK adaptor protein 1) the results were cell gain with vemurafenib 0.66; lactate per cell with vemurafenib 0.55.
After knock-down of PTCD2 (pentatricopeptide repeat domain 2), the record shows cell gain with vemurafenib 0.1; lactate per cell with vemurafenib 1.71.
Knock-down of ZNF805 (zinc finger protein 805) resulted in: cell gain with vemurafenib 0.68; lactate per cell with vemurafenib 0.56.
After knock-down of ARNT2 (aryl hydrocarbon receptor nuclear translocator 2), the screen gave cell gain with vemurafenib 0.55; lactate per cell with vemurafenib 0.92.
After knock-down of FCRLA (Fc receptor like A), the screen gave cell gain with vemurafenib 0.54; lactate per cell with vemurafenib 1.46.
For PTPRK (protein tyrosine phosphatase receptor type K) the deposit lists cell gain with vemurafenib 0.71; lactate per cell with vemurafenib 1.53.
Silencing of PIP5K1C (phosphatidylinositol-4-phosphate 5-kinase type 1 gamma) came out at: cell gain with vemurafenib 1.06; lactate per cell with vemurafenib 0.62.
PCDH11X (protocadherin 11 X-linked) scored cell gain with vemurafenib 0.42; lactate per cell with vemurafenib 0.61.
With knock-down of IL7 (interleukin 7), the record shows cell gain with vemurafenib 0.56; lactate per cell with vemurafenib 0.86.
Knock-down of SIVA1 (SIVA1 apoptosis inducing factor) came out at: cell gain with vemurafenib 0.06; lactate per cell with vemurafenib 2.91.

Part of the list above, reduced to “lactate per cell with vemurafenib”:
FCRLA (Fc receptor like A)	1.46
PTPRK (protein tyrosine phosphatase receptor type K)	1.53
PIP5K1C (phosphatidylinositol-4-phosphate 5-kinase type 1 gamma)	0.62
